Source: PubChem BioAssay AID504847 (National Center for Advancing Translational Sciences (NCATS), 2011)
Where “and” joins values, the source holds several entries; their conditions need not be identical. Equal entries are not always repeated. The campaign covered roughly 400,000 compounds. About 3,700 (0.93%) were called active. The inconclusive results got no clear call from the source; some entries with a clear call stand among them for comparison. Calls follow the shape of the dose curve; as a rule, active = well fitted inhibition curve with a large enough effect; inconclusive = small, poorly fitted or top-dose-only effect, or another doubt; inactive = no such curve, though single readings can be large or run the other way. A potency beside an inconclusive call is a rough fit, not a confirmed value. The source holds several records for some structures; these can differ, active in one and inactive in another.

Protein sequences, listed by entry. Tags and fused reporters are not part of them. Lines headed by an entry give the natural chain unless they say otherwise; changes in a name come on top.
UniProt P11473: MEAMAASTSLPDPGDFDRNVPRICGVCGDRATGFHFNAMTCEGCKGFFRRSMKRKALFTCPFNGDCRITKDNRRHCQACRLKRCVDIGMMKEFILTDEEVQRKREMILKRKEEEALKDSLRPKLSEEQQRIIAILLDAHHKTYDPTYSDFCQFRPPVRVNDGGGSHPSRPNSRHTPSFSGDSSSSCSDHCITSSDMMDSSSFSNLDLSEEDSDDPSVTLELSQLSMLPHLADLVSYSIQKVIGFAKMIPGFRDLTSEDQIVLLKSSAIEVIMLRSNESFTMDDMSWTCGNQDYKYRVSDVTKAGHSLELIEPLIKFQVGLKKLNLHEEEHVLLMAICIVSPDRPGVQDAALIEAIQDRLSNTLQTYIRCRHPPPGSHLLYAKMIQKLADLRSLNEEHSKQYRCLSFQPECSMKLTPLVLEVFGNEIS

Biological target: Vitamin D3 receptor (Homo sapiens) (UniProt P11473)
Test: Inhibitors of the vitamin D receptor (VDR): qHTS
Conditions: VDR-SRC2-3 peptide fluorescence polarization, 2 h; max response, negative = inhibition: stronger effect = lower value
Outline: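 Fluorescence polarization assay measuring small-molecule disruption of VDR binding to the coregulator peptide SRC2-3. Compounds were pin-transferred (23 nl) into the reagent mix and incubated 2 h at room temperature before reading.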
% is scaled to controls: 0 for no effect and ±100 for the full control effect; potency is read from the fitted curve at half-maximal effect.

Potency, active:
COC(=O)[C@@]1(Cc2ccccc2-c2ccco2)C=C[C@H](C)[C@@H](c2ccccc2)N1C(=O)C(F)(F)F 44.7 µM
O=C(O)c1ccc(-c2ncc[nH]2)cc1 44.7 µM
CC/C=C\C/C=C\C/C=C\C/C=C\C/C=C\C/C=C\CCC(=O)O 28.2 µM and 31.6 µM
CCn1nc(C)cc1C(=O)Sc1ccc(Cl)cc1Cl 79.4 µM
O=S(=O)(c1ccc2[nH]c3c(c2c1)CCCC3)N1CCCCC1 89.1 µM
O=C(/C=C/c1ccc(Br)o1)NCc1ccccc1 89.1 µM

Potency, inconclusive:
CC(=O)C1=C(O)C(=O)N(c2ccccn2)C1c1ccccc1[N+](=O)[O-] (stereo not drawn) 39.8 µM [inhibitor, partial curve, poor fit]
COC(=O)c1ccccc1NC(=O)C(=O)NCc1ccncc1 89.1 µM [inhibitor, single point]
Cc1ccc(-n2c(-c3ccccc3)c[nH]c2=S)cc1 89.1 µM [inhibitor, single point]
Cc1ccc(NC(=O)c2ccc(OC(=O)C(C)Oc3ccc(Cl)cc3C)cc2)cc1 (stereo not drawn) 0.562 µM [inhibitor, full curve, poor fit]
Cc1nc2c3cc(F)ccc3n(Cc3ccc(F)cc3)c2s1 7.08 µM [inhibitor, partial curve]
O=C(Nc1nc(-c2ccc(S(=O)(=O)N3CCOCC3)cc2)cs1)c1ccccc1 79.4 µM [inhibitor, partial curve]
CC(=O)c1ccc(-c2c(C)cc3oc(=O)cc(-c4ccccc4)c3c2C)cc1 89.1 µM [inhibitor, partial curve, poor fit]
CC(C)(C)C(=O)Nc1ccnn1C1CCN(C(=O)c2cccc(Cl)c2)CC1 89.1 µM [inhibitor, single point]
C#CCOCCOCCOCCNc1nc(N2CCN(C(=O)Cn3cc(CC(C)O)nn3)CC2)nc(N2CCN(C(=O)[C@H](C)n3cc(CCCN=C(N)N)nn3)CC2)n1 (stereo partly drawn) 100 µM [inhibitor, single point]
O=C1N/C(=C/c2ccc(N3CCOCC3)o2)C(=O)N1c1cccc(Cl)c1 25.1 µM [inhibitor, single point]
O=[N+]([O-])c1ccccc1-c1ccc(C(=S)N2CCCCC2)o1 79.4 µM [inhibitor, single point]
Cn1c(=O)c2c(nc(OCCc3ccccc3)n2C)n(C)c1=O 70.8 µM [inhibitor, partial curve]
CC(C)N(C(=NCc1ccccc1)NC(=O)c1ccccc1)C(C)C 22.4 µM [inhibitor, partial curve, poor fit]
O=C1NC(=S)S/C1=C\c1cc(Cl)ccc1Cl 70.8 µM [inhibitor, single point]
COc1ccccc1C(=O)NNc1ncc(C)s1 70.8 µM [inhibitor, partial curve, poor fit]
CC(OC(=O)CN1C(=O)C2CC=CCC2C1=O)C(=O)Nc1ccc(F)cc1Cl (stereo not drawn) 89.1 µM [inhibitor, single point]
O=c1[nH]nc(N/N=C/c2ccc(Cl)cc2Cl)c(=O)[nH]1 35.5 µM [inhibitor, partial curve, poor fit]
COc1ccc(C(c2sc3nc(C)nn3c2O)N2CCc3ccccc3C2)cc1 (stereo not drawn) 63.1 µM [inhibitor, partial curve, poor fit]
COCCN=C1NN=C(c2ccc(NC(C)=O)cc2)CS1 56.2 µM [inhibitor, partial curve, poor fit]
CCc1ccc(C2Sc3ccccc3NC3=C2C(=O)c2ccccc23)cc1 (stereo not drawn) 70.8 µM [inhibitor, partial curve, poor fit]
CC1(C)Cc2c(C#N)c(SCC(=O)c3ccccc3)nc(N3CCOCC3)c2CO1 89.1 µM [inhibitor, single point]
S=C(N=Nc1ccccc1)NNc1ccccc1 89.1 µM [inhibitor, partial curve, poor fit]
CCN(CC)S(=O)(=O)c1ccc(C(=O)/C=C/c2ccc(-c3ccc([N+](=O)[O-])cc3)o2)cc1 89.1 µM [inhibitor, partial curve, poor fit]

Max response, negative = inhibition, inactive:
COc1ccc(CNC(=O)COC(=O)c2ccc(Br)cc2)cc1 22.6%
COc1ccc(C(=O)Nc2nc(-c3nnn(-c4ccc(F)cc4F)c3C)ns2)cc1 -5.8%
COc1ccc(CCN(C)CCCOc2ccc(S(=O)(=O)c3[nH]c4ccccc4c3C(C)C)cc2)cc1OC -6.47%
COc1cccc(CNS(=O)(=O)c2c(C(=O)N3CCCCC3)c(C)n(C)c2C)c1 -10.4%
O=[N+]([O-])c1ccccc1-c1cc(-c2cc(Cl)ccc2O)n[nH]1 -8.04%
O=C(NC(=S)N1CCN(c2nc(-c3ccccc3)cs2)CC1)c1cncc(Br)c1 -15.3%
COc1ccccc1C1Nc2cccc3cccc(c23)N1 -9.89%
Cc1c(C(N)=O)nnn1-c1ccc(Br)cc1 7.89%
Cc1n[nH]c(C)c1NC(=O)CN1CCN(S(=O)(=O)c2ccc(C(F)(F)F)cc2)CC1 -12.3%
CC(=NNS(=O)(=O)c1cccc([N+](=O)[O-])c1)c1ccc(-n2ccnc2)cc1 -22.3%
O=C(NCCc1ccc(Cl)cc1)c1ccc(CSCc2ccccc2Cl)o1 2.7%
CSCCC(N)C(=O)NC(CC(C)C)C(=O)NC(Cc1ccccc1)C(=O)O (stereo not drawn) 7.14%
CCC1Nc2ccccc2-c2nnc(SC)nc2O1 (stereo not drawn) 3.94%
CCCCc1nn2c(=O)cc(COC(=O)c3cccc(OC)c3)nc2s1 3.28%

Pulled by structure from the list above (3):
Max response, negative = inhibition, inactive:
Cc1c(C(N)=O)nnn1-c1ccc(Br)cc1 7.89%
O=C(NC(=S)N1CCN(c2nc(-c3ccccc3)cs2)CC1)c1cncc(Br)c1 -15.3%
COc1ccccc1C1Nc2cccc3cccc(c23)N1 -9.89%
